# US10428048B2, “Androgen receptor antagonists” (CITY OF HOPE, priority 2015, dated 2019)
# Assay: physchem
compound,measurement,setting,value
Cc1cc(/C=C/c2ccc3cc(N(C)C)ccc3[n+]2C)c(C)n1-c1ccccc1 [Pyrvinium],solubility,"aqueous buffer, Solubility (mg/ml) Buffer B (aqueous)",< 1000 µg/mL
same,solubility,"aqueous with cosolvent or surfactant or cyclodextrin, Solubility (mg/ml) Beta cyclodextrin",< 1000 µg/mL
same,solubility,"aqueous with cosolvent or surfactant or cyclodextrin, Solubility (mg/ml) Gamma cyclodextrin",< 1000 µg/mL
same,solubility,"organic solvent or mixture, Solubility (mg/ml) Acetonitrile",< 5000 µg/mL
same,solubility,"organic solvent or mixture, Solubility (mg/ml) DMSO",~10000 µg/mL
same,solubility,"organic solvent or mixture, Solubility (mg/ml) Ethanol",< 1000 µg/mL
